Assay: general procedure: peptide synthesis; TSTU (succinimidyl ester activation of side chain)
Conditions: lipidation step

In the case of “N^εB29-(3-[2-{2-(2-[ω-carboxy-pentadecanoyl-γ-glutamyl-(2-amino-ethoxy)]-ethoxy)-ethoxy}-ethoxy]-propionyl) desB30 human insulin”, the step yield is reported as 13%, the “final HPLC purity” value (HPLC) is reported as greater than 98% and the step yield (coupling yield by RP-HPLC) is reported as 64%.
